Some entries share one result that the patent states for a list of compounds. For at least one compound, name, drawing or mass did not settle the structure.
Assays:
[1] = biological target: T1, purified codon-optimized nanoKAZ domain protein (Oplophorus gracilirostris, UniProt Q9GV45, A31E/A60N/A81I/F95D/I117V/K70R/L54V/L99Q/M102K/N193R/P142E/Q151K/Q38R/Q45L/V71I/Y165I); experiment: Substrate specificity of purified nanoKAZ; format: biochemical; conditions: higher than that of coelenterazine
T1 construct: histidine tag (6 His) (N, cleaved yes); ZZ domain (N, cleaved yes); made in house; host or cells: Escherichia coli BL21
Description: The luminescence reaction was started by addition of 5 μl (0.03 μg) of the purified enzyme solution obtained in EXAMPLE 7 to 100 μl of 50 mM Tris-HCl (pH 7.6)-10 mM EDTA (Wako Pure Chemical Industries, Ltd.) containing 1 μg of coelenterazine (manufactured by JNC) or its analogues. The luminescence activity was measured with a luminometer (manufactured by Atto Co.: AB2200) for 60 seconds. The maximum intensity of luminescence (Imax) and the level integrated for 60 seconds were represented as relative light units (rlu).
The luminescence activity of the purified codon-optimized nanoKAZ domain was measured in accordance with the method described in EXAMPLE 8. […] The results obtained using the purified codon-optimized nanoKAZ as the enzyme solution are in good agreement with the results found by using the culture cell solution as the enzyme solution.

The chains behind the UniProt entries cited, without tags or fusion partners. A line that says so, or that is headed by a name, gives the form on record, which may keep a tag or linker. Residues count along the entry.
UniProt Q9GV45, other isoform, or with tags, fused parts or gaps with the stated changes: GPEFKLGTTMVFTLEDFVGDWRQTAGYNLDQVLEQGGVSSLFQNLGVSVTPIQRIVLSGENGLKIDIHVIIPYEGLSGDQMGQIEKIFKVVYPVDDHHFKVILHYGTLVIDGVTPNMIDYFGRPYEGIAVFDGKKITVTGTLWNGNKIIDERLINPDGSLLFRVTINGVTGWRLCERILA
UniProt Q9GV45, 28-196 with tags or gaps with the stated changes limits assumed: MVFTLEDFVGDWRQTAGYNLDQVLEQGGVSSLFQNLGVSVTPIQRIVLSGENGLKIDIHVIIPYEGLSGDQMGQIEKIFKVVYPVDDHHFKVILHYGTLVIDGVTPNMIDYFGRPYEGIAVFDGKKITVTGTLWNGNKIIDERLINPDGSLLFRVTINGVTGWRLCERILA

[2] = biological target: T2, codon-optimized nanoKAZ domain protein (Oplophorus gracilirostris, UniProt Q9GV45, A31E/A60N/A81I/F95D/I117V/K70R/L54V/L99Q/M102K/N193R/P142E/Q151K/Q38R/Q45L/V71I/Y165I); experiment: Substrate specificity and luminescence pattern of nanoKAZ secreted into culture medium; format: biochemical; conditions: secreted nanoKAZ in culture medium
T2 construct: expressed in transfected cells; host or cells: CHO-K1, HeLa or COS-1 cells transfected with pcDNA3-nanoKAZ or pcDNA3-GLsp-nanoKAZ
Description: The luminescence reaction was started by addition of 5 μL of the enzyme solution for assay obtained in EXAMPLE 3 to 100 μL of 50 mM Tris-HCl (pH 7.6)-10 mM EDTA (Wako Pure Chemical Industries, Ltd.) containing 0.5 μg of coelenterazine (manufactured by JNC Corp.). The luminescence activity was measured for 60 seconds with a luminometer (manufactured by Atto Co.: AB2200). The maximum intensity of luminescence (Imax) and the luminescence activity integrated for 60 seconds were represented as relative light units (rlu). On the other hand, the luminescence activity of firefly luciferase was used as an internal standard to confirm the efficiency of transfection. Five microliters of the enzyme solution for assay obtained in EXAMPLE 3 was added to 100 μL of the enzyme assay solution (manufactured by Promega Corp.) to start the luminescence reaction. The luminescence activity was measured with a luminometer (manufactured by Atto Co.: AB2200) by integration of luminescence for 10 seconds, which was shown as relative light units (rlu). […] While the transfection efficiencies vary in depending upon cell types, the transfection efficiencies of pcDNA3-nanoKAZ and pcDNA3-GLsp-nanoKAZ are almost the same. The results obtained by measuring the luminescence activity of CHO-K1 cells, HeLa cells and COS-1 cells in culture medium and cells are shown in TABLE 4. Evidently, pcDNA3-nanoKAZ without a signal peptide sequence for secretion was secreted comparably or more efficiently than pcDNA3-GLsp-nanoKAZ.
Coelenterazine analogues used in the substrate specificity experiments were synthesized by the methods described in the respective papers. More specifically, bis-coelenterazine, furimazine and C2-coelenterazine analogue were synthesized by the methods described in Nakamura et al. (1997) Tetrahedron Lett. 38:6405-6406, Hall et al. (2012) ACS Chem. Biol. […] and Inouye et al. (2010) Anal. Biochem. 407: 247-252, respectively. Using as an enzyme solution for coelenterazine or its analogues the culture medium, into which nanoKAZ was secreted as described in EXAMPLE 4, the luminescence activity was measured. Among coelenterazine analogues, the relative maximum intensity of luminescence for h-, bis-, 3me- and 3meo-coelenterazines was at least 10-fold higher and the relative luminescence activity integrated for 1 minute of h- and bis-coelenterazines was at least 10-fold higher, than the others. These luminescence patterns are illustrated in FIG. 4.

Cc1cccc(Cc2nc3c(Cc4ccccc4)[nH]c(-c4ccc(O)cc4)cn-3c2=O)c1 [3me-Coelenterazine]
at least 10 fold: relative maximum luminescence intensity [1] | relative maximum intensity of luminescence [2]

COc1cccc(Cc2nc3c(Cc4ccccc4)[nH]c(-c4ccc(O)cc4)cn-3c2=O)c1 [3meo-Coelenterazine]
at least 10 fold: relative maximum luminescence intensity [1] | relative maximum intensity of luminescence [2]

Oc1ccc(-c2cn3c(O)c(Cc4ccccc4)nc3c(Cc3ccccc3)n2)cc1 [h-Coelenterazine]
at least 10 fold: relative luminescence level integrated for 60 seconds [1] | relative maximum luminescence intensity [1] | relative luminescence activity integrated for 1 minute [2] | relative maximum intensity of luminescence [2]

bis-Coelenterazine
at least 10 fold: relative luminescence level integrated for 60 seconds [1] | relative maximum luminescence intensity [1] | relative luminescence activity integrated for 1 minute [2] | relative maximum intensity of luminescence [2]

— patent US10006009B2, “Codon-optimized gene for mutated shrimp luciferase and method for use thereof” (JNC CORPORATION, priority 2013, dated 2018)
